For one molecule, MIC results are on record in patent US8741940B2, “Microbicidal composition” (Rohm and Haas Company, priority 2005, dated 2014).

What all share (type): cell-based
Assay [1] relates to Escherichia coli (E. coli—ATCC #8739). Nature of the assay: Synergy test, microtiter plate high resolution MIC assay, bacterium in M9GY medium. Conditions: ATCC8739, 72 h, read-out: MIC of the component acting alone (QA / QB). On the procedure:
(§1) When the sum of Qa/QA and Qb/QB is greater than one, antagonism is indicated. […] The lower the SI, the greater the synergy shown by that particular mixture. The minimum inhibitory concentration (MIC) of a microbicide is the lowest concentration tested under a specific set of conditions that prevents the growth of added microorganisms.
(§2) Synergy tests were conducted using standard microtiter plate assays with media designed for optimal growth of the test microorganism. Minimal salt medium supplemented with 0.2% glucose and 0.1% yeast extract (M9GY medium) was used for testing bacteria; Potato Dextrose Broth (PDB medium) was used for testing yeast and mold. In this method, a wide range of combinations of microbicides and other personal care raw materials was tested by conducting high resolution MIC assays in the presence of various concentrations of BBIT or MBIT. High resolution MICs were determined by adding varying amounts of microbicide to one column of a microtitre plate and doing subsequent […] dilutions using an automated liquid handling system to obtain a series of endpoints ranging from 2 ppm to 10,000 ppm active ingredient.
(§3) The bacteria were used at a concentration of about 5 ×10^6 bacteria per mL and the yeast and mold at 5×10^5 fungi per mL. These microorganisms are representative of natural contaminants in many consumer and industrial applications. […]

In assay [2] the test system is Candida albicans (C. albicans—ATCC 10231). Nature of the assay: Synergy test, microtiter plate high resolution MIC assay, yeast in PDB medium. Conditions: ATCC10231, 24 h, read-out: MIC of the component acting alone (QA / QB). As for the experimental part:
as §1, §2, §3

The subject of assay [3] is Aspergillus niger (A. niger—ATCC 16404). Nature of the assay: Synergy test, microtiter plate high resolution MIC assay, mold in PDB medium. Conditions: ATCC16404, 168 h, read-out: MIC of the component acting alone (QA / QB). On the procedure: as §1, §2, §3

Take `CC(C)(C)CC(C)(C)c1ccc(OCCOCC[N+](C)(C)Cc2ccccc2)cc1` [Benzethonium chloride]: the MIC came out at 20 µg/mL in assay [1], 4 µg/mL in assay [2] and 10 µg/mL in assay [3].
